Experimental data published in paper PMC6379999.
Construct, isoform or probe ends are uncertain for at least one entry.

target: SSP_Lrp (Streptomyces spiramyceticus 1941) (UniProt A0A411PXG6); assay: EMSA; settings: EMSA: 10 mM Tris-Cl pH 7.5, 50 mM NaCl, 1 mM EDTA, 4 mM DTT, 5% glycerol, 0.1 ng/uL negative-control DNA, 300 ug/mL acetylated BSA, 0.4 ng probe, 20 uL, 20 min; recombinant protein; residues 1-148; protein details: N-terminal His6 (pQE9); probe letters rebuilt from the primers and the genome

| Sequence | binding result |
| --- | --- |
| GGCAGGTAGGCCATTTGGGTTCGTGTCCGTCAAGGGGGCGTCGGCCCACACAGCCGTGGCGATGGTGCGTCCCGCGGGGTGTTCCGGGGGCTGTGCGGACGCGGCCGGCGCGACGTGTTTCTGATGGCATGTCACCTTCTGGGGGTGATCGGCGGTGAGGTGATCACGTCGCGTTGTGGAGCGATCTCGTGGAGTGGTCGGTCGTGGTGCCCCGGCACCACTCGTGGGGCGCTCGTGGTGGGTTTCCCCTCACGTTTCGGAGCGGTGGGAGCGGTCCGCGCCGAGGGTGCGTCGGTGGGGGAGCGAAGCGGAATGAGTGTGCCCGGTGTACCTGGGGCGGTCGGGGTGAATTCGCGATGCTGGTCCGAGTCCACTCGCAGGAATGACGA (double strand) [Pbsm42] | binds |
| AGTCGCCGGTAGCTTATCCACCGTTCGCCGAGGCGGTTCAAGTGGCAGCGTTCAACCGCGATCCGGTCTTTATGGAATTCATATCTGCCCGCTGGCTTGATGAGTCGGGCCTCATGTCCGGAAGTCGATCCCGGCCGGGAGTGCGCGGCGATCCGCCCGGACGCCGAATGCCGTGGCCGGCACCCGTCCGGTAACGTCCTGCGGGGTACGGACGGCGGTCCGGCCGTCCATCAGAATCGGACGAACGGGATGAAATGTTATGGCGAGGGAGCGAAAGGAAGCGGGTGCGGAGGATTTACCGCAGCCCGTTCCAGGACCCTCGGCGATCTAGATCGGGTACCCTGATAGCGTAATAACCTGTCATTGTATTCGTA (double strand) [Pbsm23] | binds |
| GGGTGACCTCGCGGCGGACGGGTGGGTGGGAGCAGATGTCTAAGGCACCGCGCGGCCGCCGGGCAAGGCGTATCTGACAAAGAGTGTGAGCCGCCGCGCGACAGTGGTGTGTTCCCACCGCTGCACGGCCGGCGACGGTGGTTTCGTCACCGGGCGACGCGGATTTAATCATCCGGAAACACGGACGACGGTTCTTCGCGGCGGTGTGACGCGAGGTGTGCGGGAAGAATTGTGTGGCCTCGGCACCTGGATTTACGGAACGAATTAACTGAGGCTGGCCAGCAGGTCTTTTCCAGTGGATCAAGCGGCTTGTGAGGGTCATA (double strand) [Pist-acyB2] | binds |
